Laboratory results from patent publication US20240084258A1, “METHOD FOR PREPARING BROWN ADIPOCYTE” (KYOTO PREFECTURAL PUBLIC UNIVERSITY CORPORATION, priority 2015, published 2024).
For at least one compound, name, drawing or mass did not settle the structure.

Legend:
Type in all cases: cell-based
[1] = tested on: human dermal fibroblasts (HDFs); assay: UCP1 protein immunostaining, fluorescence intensity (Example 8)
Experimental: The next day, the culture supernatant was removed by suction and, as described in the Figure, a normal medium, an adipocyte induction medium, or an adipocyte induction medium added with each compound and the like was added at 500 μL/well. […] The concentrations of the additives are as follows: • T3: 1 nM • Rosiglitazone: 1 μM • […]: 2 μM • SB431541: 2 μM • ALK5 inhibitor II: 2 μM • PD0325901: 1 μM • Forskolin (FSK): 2 μM. The culture medium was substituted by a fresh one every 3-4 days and the cells were cultured up to day 14. […] The cells were photographed at a magnification of 200 with a fluorescence microscope and the fluorescence intensity was measured.

[2] = tested on: human dermal fibroblasts (HDFs); assay: UCP1 gene mRNA by real time RT-PCR (Example 2); conditions: induction medium + T3 + Rosiglitazone, D4476 2 μM, FSK 2 μM, PD0325901 1 μM, SB431542 2 μM, day 14, FIG. 2
Experimental: This was seeded in a 24-well plate at a concentration of 1×10^4 cells/well (day 0), and culturing was started at 5% CO2/95% humid air, 37° C. The next day, the culture supernatant was removed by suction and, as described in the Figure, a normal medium, an adipocyte induction medium, or an adipocyte induction medium added with each low-molecular compound and the like was added at 500 μL/well. […] The concentrations of the additives are as follows: • T3: 1 nM • Rosiglitazone: 1 μM • D4476: 2 μM • Pifithrin alpha [p53 inhibitor]: 5 μM • Forskolin (FSK): 2 μM • PD0325901: 1 μM • SB431542: 2 μM. The culture medium was substituted by a fresh one every 3-4 days and the cells were cultured up to day 14.

[3] = tested on: human dermal fibroblasts (HDFs); assay: UCP1 mRNA response of induced cells to Isoproterenol or FSK stimulation (Example 3); conditions: cells cultured 14 days with T3, Rosiglitazone and D4476, then 10 μM Isoproterenol or FSK for 5 hr; FIG. 3
Experimental: 10 μM Isoproterenol or FSK was added to these cells as described in the Figure. As a control, a group free of the addition was also prepared. After 5 hr, the culture medium was removed from each well by suction, the cells were washed with PBS(−) and total RNA was extracted from the cells with ISOGEN II. qRT-PCR was performed in the same manner as in Example 2. The mRNA level of UCP1 gene was quantified as a ratio to […] gene mRNA and calculated with the value of fibroblast cultured in the normal medium as 1.

[4] = tested on: human dermal fibroblasts (HDFs); assay: PGC-1alpha gene mRNA by real time RT-PCR (Example 5); conditions: induction medium + T3 + Rosiglitazone, FSK 2 μM, PD0325901 1 μM, day 14, FIG. 5
Experimental: The next day, the culture supernatant was removed by suction and, as described in the Figure, a normal medium, an adipocyte induction medium, or an adipocyte induction medium added with each compound and the like was added at 500 μL/well. […] The concentrations of the additives are as follows: • T3: 1 nM • Rosiglitazone: 1 μM • Pifithrin alpha [p53 inhibitor]: 5 μM • Forskolin (FSK): 2 μM • PD0325901: 1 μM. The culture medium was substituted by a fresh one every 3-4 days and the cells were cultured up to day 14.

SMILES: C=C[C@@]1(C)CC(=O)[C@]2(O)[C@@]3(C)[C@@H](O)CCC(C)(C)[C@@H]3[C@H](O)[C@H](OC(C)=O)[C@@]2(C)O1 [Forskolin, forskolin]
- change of expression of UCP-1 protein by addition culture ([1]; PD0325901 1 μM or Forskolin 2 μM, day 14, FIG. 8B): increases
- UCP1 protein expression by immunostaining (conversion to brown adipocytes) ([1]; induction medium + T3 + Rosiglitazone, D4476, SB431541, ALK5 inhibitor II, FSK 2 μM, PD0325901 1 μM, day 14, FIG. 8A-C): converted to brown adipocytes expressing UCP1 protein
- mRNA expression of UCP1 gene (conversion to brown adipocytes) [2]: induced to brown adipocytes that express mRNA of UCP1 gene
- UCP1 mRNA expression on stimulation [3]: more strongly express UCP1 mRNA
- mRNA expression of PGC-1alpha gene (conversion to brown adipocytes) [4]: converted to brown adipocytes expressing mRNA of PGC-1alpha gene
